The labels stand for the following.
B1: Ca1 (protein, UniProt B0BNN3 1-261)
chain: MASADWGYDSKNGPDQWSKLYPIANGNNQSPIDIKTSEAKHDSSLKPVSVSYNPATAKEIVNVGHSFHVVFDDSSNQSVLKGGPLADSYRLTQFHFHWGNSNDHGSEHTVDGAKYSGELHLVHWNSAKYSSAAEAISKADGLAIIGVLMKVGPANPNLQKVLDALSSVKTKGKRAPFTNFDPSSLLPSSLDYWTYFGSLTHPPLHESVTWVICKESISLSPEQLAQLRGLLSSAEGEPAVPVLSNHRPPQPLKGRTVRASF
B2: Pygm (protein, UniProt P09812 1-842)
chain: MSRPLSDQDKRKQISVRGLAGVENVSDLKKNFNRHLHFTLVKDRNVATPRDYYFALAHTVRDHLVDRWIRTQQHYYAKDPKRIYYLSLELYMGRTLQNTMVNLALENACDEATYQLGLDMEELEEIEEDAGLGNGGLGRLAACFLDSMATLGLAAYGYGIRYEFGIFNQKICGGWQMEEADDWLRYGNPWEKARPEFTLPVHFYGRVEHTSQGAKWVDTQVVLAMPYDTPVPGYRNNVVNTMRLWSAKAPPYFNLKDFNVGGYIQAVLDRNLAENISRVLYPNDKFFEGKELRLKQEYFVVAATLQDIIRRFKSSKFGCRDPVRTNFDAFPDKVAIQLNDTHPSLAIPELIRILVDLERLDWDKAWDVTVKTCAYTNHTVLPEALERWPVHLMETLLPRHLQIIYEINQRFLNRVAAAFPGDVDRLRRMSLVEEGAVKRINMAHLCIAGSHAVNGVARIHSEILKKTIFKDFYELEPHKFQNKTNGITPRRWLVLCNPGLAEVIAERIGEEYISDLDQLRKLLSYLDDQAFIRDVAKVKQENKLKFSAYLETEYKVHINPNSLFDVQVKRIHEYKRQLLNCLHIITLYNRIKREPNRFMVPRTIMIGGKAAPGYHMAKMIIKLITAIGDVVNHDPAVGDRFRVIFLENYRVSLAEKVIPAADLSEQISTAGTEASGTGNMKFMLNGALTIGTMDGANVEMAEEAGEDNFFIFGMRVEDVERLDQRGYNAQEYYDRIPELRQIIEQLSSGFFSPKQPDLFKDIVNMVMHHDRFKVFADYEEYIKCQDKVSELYKNPREWTRMVIRNIATSGKFSSDRTIAQYAREIWGLEPSRQRLPAPDEKI
B3: Slc25a3 (protein, UniProt P16036 45-356)
chain: AVEGYSCEFGSMKYYALCGFGGVLSCGLTHTAVVPLDLVKCRMQVDPQKYKGIFNGFSITLKEDGVRGLAKGWAPTLIGYSMQGLCKFGFYEVFKALYSNILGEENTYLWRTSLYLAASASAEFFADIALAPMEAAKVRIQTQPGYANTLREAVPKMYKEEGLNAFYKGVAPVWMRQIPYTMMKFACFERTVEALYKFVVPKPRSECTKAEQLVVTFVAGYIAGVFCAIVSHPADSVVSVLNKEKGSTASQVLQRLGFRGVWKGLFARIIMIGTLTALQWFIYDSVKVYFRLPRPPPPEMPESLKKKLGLTE
B4: Pccb (protein, UniProt P07633 29-541)
chain: SLCSQPVSVNERIENKRHAALLGGGQRRIDAQHKRGKLTARERISLLLDPGSFLESDMFVEHRCADFGMAAEKNKFPGDSVVTGRGRINGRLVYVFSQDFTVFGGSLSGAHAQKICKIMDQAITVGAPVIGLNDSGGARIQEGVESLAGYADIFLRNVTASGVIPQISLIMGPCAGGAVYSPALTDFTFMVKDTSYLFITGPEFVKSVTNEDVTQEQLGGAKTHTTVSGVAHRAFDNDVDALCNLREFLNFLPLSNQDPASIRECHDPSDRLVPELDTVVPLESSKAYNMLDIIHAVIDEREFFEIMPNYAKNIVIGFARMNGRTVGIVGNQPNVASGCLDINSSVKGARFVRFCDAFSIPLITFVDVPGFLPGTAQEYGGIIRHGAKLLYAFAEATVPKITVITRKAYGGAYDVMSSKHLLGDTNYAWPTAEIAVMGAKGAVEIIFKGHEDVEAAQAEYVEKFANPFPAAVRGFVDDIIQPSSTRARICCDLEVLASKKVHRPWRKHANVPL
B5: Ca3 (protein, UniProt P14141 1-260)
chain: MAKEWGYASHNGPEHWHELYPIAKGDNQSPIELHTKDIRHDPSLQPWSVSYDPGSAKTILNNGKTCRVVFDDTFDRSMLRGGPLSGPYRLRQFHLHWGSSDDHGSEHTVDGVKYAAELHLVHWNPKYNTFGEALKQPDGIAVVGIFLKIGREKGEFQILLDALDKIKTKGKEAPFNHFDPSCLFPACRDYWTYHGSFTTPPCEECIVWLLLKEPMTVSSDQMAKLRSLFASAENEPPVPLVGNWRPPQPIKGRVVRASFK
B6: Dcx (protein, UniProt Q9ESI7 1-365)
chain: MELDFGHFDERDKASRNMRGSRMNGLPSPTHSAHCSFYRTRTLQALSNEKKAKKVRFYRNGDRYFKGIVYAVSSDRFRSFDALLADLTRSLSDNINLLQGVRYIYTIDGSRKIGSMDELEEGESYVCSSDNFFKKVEYTKNVNPNWSVNVKTSANMKAPQSLASSNSAQARENKDFVRPKLVTIIRSGVKPRKAVRVLLNKKTAHSFEQVLTDITEAIKLETGVVKKLYTLDGKQVTCLHDFFGDDDVFIACGPEKFRYAQDDFSLDENECRVMKGNPSATAGPKASPTPQKTSAKSPGPMRRSKSPADSGNDQDANGTSSSQLSTPKSKQSPISTPTSPGSLRKHKDLYLPLSLDDSDSLGDSM
B7: Prdx2 (protein, UniProt P35704 1-198)
chain: MASGNAHIGKPAPDFTGTAVVDGAFKEIKLSDYRGKYVVLFFYPLDFTFVCPTEIIAFSDHAEDFRKLGCEVLGVSVDSQFTHLAWINTPRKEGGLGPLNIPLLADVTKSLSQNYGVLKNDEGIAYRGLFIIDAKGVLRQITVNDLPVGRSVDEALRLVQAFQYTDEHGEVCPAGWKPGSDTIKPNVDDSKEYFSKHN
B8: Hadhb (protein, UniProt Q60587 35-475)
chain: SAPAVQTKSKKTLAKPNLKNIVVVEGVRIPFLLSGTSYKDLMPHDLARAALSGLLYRTNIPKDVVDYIIFGTVIQEVKTSNVAREAALGAGFSDKTPAHTVTMACISSNQAMTTAVGLIASGQCDVVVAGGVELMSDVPIRHSRNMRKMMLDLNKAKTLAQRLSLLTKFRLNFLSPELPAVAEFSTNETMGHSADRLAAAFAVSRMEQDKYALRSHSLAKKAQDEGHLSDIVPFKVPGKDTVSKDNGIRPSSLEQMAKLKPAFIKPYGTVTAANSSFLTDGASAMLIMSEDRALAMGYKPKAYLRDFIYVSQDPKDQLLLGPTYATPKVLEKAGLTMNDIDAFEFHEAFSGQILANFKAMDSDWFAQNYMGRKTKVGAPPLEKFNIWGGSLSLGHPFGATGCRLVMAAANRLRKDGGQYALVAACAAGGQGHAMIVEAYPK
B9: Ppp2r2a (protein, UniProt P36876 1-447)
chain: MAGAGGGNDIQWCFSQVKGAVDDDVAEADIISTVEFNHSGELLATGDKGGRVVIFQQEQENKIQSHSRGEYNVYSTFQSHEPEFDYLKSLEIEEKINKIRWLPQKNAAQFLLSTNDKTIKLWKISERDKRPEGYNLKEEDGRYRDPTTVTTLRVPVFRPMDLMVEASPRRIFANAHTYHINSISINSDYETYLSADDLRINLWHLEITDRSFNIVDIKPANMEELTEVITAAEFHPNSCNTFVYSSSKGTIRLCDMRASALCDRHSKLFEEPEDPSNRSFFSEIISSISDVKFSHSGRYMMTRDYLSVKVWDLNMENRPVETYQVHEYLRSKLCSLYENDCIFDKFECCWNGSDSVVMTGSYNNFFRMFDRNTKRDITLEASRENNKPRTVLKPRKVCASGKRKKDEISVDSLDFNKKILHTAWHPKENIIAVATTNNLYIFQDKVN
B10: Hpx (protein, UniProt P20059 24-460)
chain: NPLPAAHETVAKGENGTKPDSDVIEHCSDAWSFDATTMDHNGTMLFFKGEFVWRGHSGIRELISERWKNPVTSVDAAFRGPDSVFLIKEDKVWVYPPEKKENGYPKLFQEEFPGIPYPPDAAVECHRGECQSEGVLFFQGNRKWFWDFATRTQKERSWPAVGNCTAALRWLERYYCFQGNKFLRFNPVTGEVPPRYPLDARDYFISCPGRGHGKLRNGTAHGNSTHPMHSRCNADPGLSALLSDHRGATYAFSGSHYWRLDSSRDGWHSWPIAHHWPQGPSAVDAAFSWDEKVYLIQGTQVYVFLTKGGNNLVSGYPKRLEKELGSPPGISLDTIDAAFSCPGSSKLYVTSGRRLWWLDLKSGAQATWAELSWPHEKVDGALCLEKSLGPYSCSSNGPNLFFIHGPNLYCYSSIDKLNAAKSLPQPQKVNSILGCSQ
B11: Mdh1 (protein, UniProt O88989 1-334)
chain: MSEPIRVLVTGAAGQIAYSLLYSIGNGSVFGKDQPIILVLLDITPMMGVLDGVLMELQDCALPLLQDVIATDKEEVAFKDLDVAVLVGSMPRREGMERKDLLKANVKIFKSQGAALEKYAKKSVKVIVVGNPANTNCLTASKSAPSIPKENFSCLTRLDHNRAKSQIALKLGVTADDVKNVIIWGNHSSTQYPDVNHAKVKLQGKEVGVYEALKDDSWLKGEFITTVQQRGAAVIKARKLSSAMSAAKAISDHIRDIWFGTPEGEFVSMGVISDGNSYGVPDDLLYSFPVVIKNKTWKFVEGLPINDFSREKMDLTAKELTEEKETAFEFLSSA

Sequences of proteins named here, by UniProt entry; tags and fusion partners are left off.
UniProt Q9NZV8: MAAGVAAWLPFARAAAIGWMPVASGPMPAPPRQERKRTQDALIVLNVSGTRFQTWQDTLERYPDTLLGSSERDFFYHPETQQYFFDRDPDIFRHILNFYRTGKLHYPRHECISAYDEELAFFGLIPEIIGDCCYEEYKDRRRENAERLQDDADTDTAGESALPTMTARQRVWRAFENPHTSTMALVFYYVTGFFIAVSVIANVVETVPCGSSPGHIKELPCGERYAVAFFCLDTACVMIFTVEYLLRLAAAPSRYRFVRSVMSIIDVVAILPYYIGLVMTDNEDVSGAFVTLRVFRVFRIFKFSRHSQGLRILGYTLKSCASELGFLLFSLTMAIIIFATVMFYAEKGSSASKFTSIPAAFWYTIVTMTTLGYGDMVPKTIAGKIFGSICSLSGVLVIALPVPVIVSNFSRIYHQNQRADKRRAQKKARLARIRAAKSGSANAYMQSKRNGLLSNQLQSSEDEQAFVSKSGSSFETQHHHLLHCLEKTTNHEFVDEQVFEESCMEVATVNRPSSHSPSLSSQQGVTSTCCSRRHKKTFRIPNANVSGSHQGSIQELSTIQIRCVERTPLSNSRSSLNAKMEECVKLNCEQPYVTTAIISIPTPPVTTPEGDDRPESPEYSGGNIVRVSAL

These are yes or no findings as the source states them, for the method shown. In cells and extracts the contact can be indirect. A yes stands for co-enrichment or nearness to the bait. Other partners may have been found.

For this test, the target named is TAP-Kv4.2 (human) (UniProt Q9NZV8). Put plainly: affinity purification with mass spectrometry; TAP-Kv4.2 expressed by lentivirus in rat hippocampal neurons, harvested at DIV14; weak lysis buffer of the kit (0.1% NP-40); streptavidin resin, then calmodulin resin; gel cut into high and low molecular weight fragments; no MS of the control sample.
Regarding B1, the binding entry is reported as “binds”.
Consider B2, for which the binding entry is reported as “binds”.
The entry for B3 is “binds”; for B4 it is “binds”.
The entry for B5 is “binds”; for B6 it is “binds”; for B7 it is “binds”.
The entry for B8 is “binds”; for B9 it is “binds”; for B10 it is “binds”.
B11: the binding entry is on record as “binds”.

For the origin of these results see publication PMC9788671.
